Test results as given in patent publication US20110039808A1, “Multitarget Compounds Active at a PPAR and Cannabinoid Receptor” (priority 2007, published 2011).
The structures given here were assigned with low confidence; some may be wrong.

Chains of the proteins cited; added tags and fusions are not shown.
UniProt P37231, whole entry: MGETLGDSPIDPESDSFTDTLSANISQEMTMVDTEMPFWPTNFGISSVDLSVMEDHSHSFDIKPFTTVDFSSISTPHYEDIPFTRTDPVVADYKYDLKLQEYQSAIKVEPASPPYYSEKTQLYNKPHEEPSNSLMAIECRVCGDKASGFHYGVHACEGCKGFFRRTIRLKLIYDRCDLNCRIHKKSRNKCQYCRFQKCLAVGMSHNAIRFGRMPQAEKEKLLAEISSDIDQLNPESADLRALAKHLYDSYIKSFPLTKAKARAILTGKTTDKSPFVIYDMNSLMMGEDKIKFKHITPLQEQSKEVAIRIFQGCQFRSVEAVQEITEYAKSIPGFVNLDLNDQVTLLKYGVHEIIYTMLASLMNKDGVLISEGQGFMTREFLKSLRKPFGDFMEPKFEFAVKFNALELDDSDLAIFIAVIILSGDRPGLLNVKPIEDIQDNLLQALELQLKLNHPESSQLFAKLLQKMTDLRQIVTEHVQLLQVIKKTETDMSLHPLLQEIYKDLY

Target: PPAR-γ receptor (Homo sapiens, UniProt P37231)
Conditions: read-out: EC50 PPAR-γ cell free; average EC50 determined in duplicate, FIGS. 12 and 13

For `CCCCCOc1c(OC)ccc2cc(C(=O)NCc3ccc(O)c(C(=O)O)c3)c(=O)[nH]c12`, the EC50 was 7.75 µM.
`CCCCCOc1c(OC)ccc2cc(C(=O)NCc3ccc(C(=O)O)c(O)c3)c(=O)[nH]c12` gave an EC50 of 7.15 µM.
